Test results published in patent US20160000865A1.
Results are given in words; binding and its absence hold for the method and conditions named. In cells and extracts the contact can be indirect. Some results given as binding are weak or reduced against the parent protein; the word gives no strength.

The chains behind the UniProt entries cited, without tags or fusion partners. Where a name states a change or a piece, a line headed by the entry shows the natural chain unless it says otherwise.
UniProt Q9Y6N7: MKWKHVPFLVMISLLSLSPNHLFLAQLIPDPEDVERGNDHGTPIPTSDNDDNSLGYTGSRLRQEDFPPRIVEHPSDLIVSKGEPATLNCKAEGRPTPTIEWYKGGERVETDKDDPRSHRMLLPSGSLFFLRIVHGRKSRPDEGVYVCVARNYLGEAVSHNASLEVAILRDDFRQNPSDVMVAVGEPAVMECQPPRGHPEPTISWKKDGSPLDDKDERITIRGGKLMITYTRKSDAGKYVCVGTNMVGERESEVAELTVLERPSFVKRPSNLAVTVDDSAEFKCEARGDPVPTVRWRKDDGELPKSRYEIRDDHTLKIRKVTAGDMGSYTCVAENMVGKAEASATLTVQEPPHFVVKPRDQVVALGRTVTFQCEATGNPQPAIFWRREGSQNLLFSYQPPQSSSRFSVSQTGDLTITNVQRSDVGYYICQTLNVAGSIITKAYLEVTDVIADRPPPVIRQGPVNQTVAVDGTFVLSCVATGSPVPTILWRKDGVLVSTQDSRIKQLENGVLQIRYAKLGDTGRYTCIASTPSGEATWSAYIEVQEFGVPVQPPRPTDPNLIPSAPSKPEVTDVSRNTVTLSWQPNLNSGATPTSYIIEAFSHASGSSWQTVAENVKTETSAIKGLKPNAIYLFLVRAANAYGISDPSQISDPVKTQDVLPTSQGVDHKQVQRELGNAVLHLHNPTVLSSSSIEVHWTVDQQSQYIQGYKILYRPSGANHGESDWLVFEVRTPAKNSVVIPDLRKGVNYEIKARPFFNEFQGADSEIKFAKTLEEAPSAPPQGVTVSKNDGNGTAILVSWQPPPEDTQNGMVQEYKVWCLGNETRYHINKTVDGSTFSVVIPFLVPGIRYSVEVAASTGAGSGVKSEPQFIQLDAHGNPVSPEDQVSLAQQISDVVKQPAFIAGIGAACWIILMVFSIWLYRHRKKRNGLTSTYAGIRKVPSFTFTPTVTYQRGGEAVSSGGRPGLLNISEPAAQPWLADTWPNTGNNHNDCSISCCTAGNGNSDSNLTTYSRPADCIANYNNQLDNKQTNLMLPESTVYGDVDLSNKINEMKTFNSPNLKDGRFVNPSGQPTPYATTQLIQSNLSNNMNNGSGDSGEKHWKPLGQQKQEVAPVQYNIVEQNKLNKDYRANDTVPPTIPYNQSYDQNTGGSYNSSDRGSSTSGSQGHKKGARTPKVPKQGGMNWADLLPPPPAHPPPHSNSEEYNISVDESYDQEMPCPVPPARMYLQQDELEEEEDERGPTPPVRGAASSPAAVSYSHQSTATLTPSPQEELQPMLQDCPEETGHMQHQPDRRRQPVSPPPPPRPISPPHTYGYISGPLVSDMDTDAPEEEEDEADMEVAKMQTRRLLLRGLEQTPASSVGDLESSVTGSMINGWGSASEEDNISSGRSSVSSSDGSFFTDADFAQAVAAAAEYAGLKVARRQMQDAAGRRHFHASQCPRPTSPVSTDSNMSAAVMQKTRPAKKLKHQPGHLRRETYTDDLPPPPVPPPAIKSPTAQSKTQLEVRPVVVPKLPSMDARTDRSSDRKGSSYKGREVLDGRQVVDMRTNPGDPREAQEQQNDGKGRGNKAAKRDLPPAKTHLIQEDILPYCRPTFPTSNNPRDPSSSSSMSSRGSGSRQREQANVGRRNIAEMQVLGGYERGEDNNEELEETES

How the values were obtained:
[1] = target: T1, Recombinant human Robo1 encoding the extracellular five Ig-like domains fused with the Fc domains of human IgG1 (human) (UniProt Q9Y6N7+P01857); assay: Protein A bead pulldown with rSlit2 and/or rRspo1, immunoblot
[2] = target: T1, Recombinant human Robo1 encoding the extracellular five Ig-like domains fused with the Fc domains of human IgG1 (human); assay: Protein A bead pulldown with Robo1-Fc, rSlit2 and/or rRspo1, immunoblot (FIG. 18A)

- binding [1]: binds
- binding [2]: binds
B1: Recombinant Slit2 (ligand, UniProt O94813 31-1529, looked up)
chain: QCSCSGSTVDCHGLALRSVPRNIPRNTERLDLNGNNITRITKTDFAGLRHLRVLQLMENKISTIERGAFQDLKELERLRLNRNHLQLFPELLFLGTAKLYRLDLSENQIQAIPRKAFRGAVDIKNLQLDYNQISCIEDGAFRALRDLEVLTLNNNNITRLSVASFNHMPKLRTFRLHSNNLYCDCHLAWLSDWLRQRPRVGLYTQCMGPSHLRGHNVAEVQKREFVCSGHQSFMAPSCSVLHCPAACTCSNNIVDCRGKGLTEIPTNLPETITEIRLEQNTIKVIPPGAFSPYKKLRRIDLSNNQISELAPDAFQGLRSLNSLVLYGNKITELPKSLFEGLFSLQLLLLNANKINCLRVDAFQDLHNLNLLSLYDNKLQTIAKGTFSPLRAIQTMHLAQNPFICDCHLKWLADYLHTNPIETSGARCTSPRRLANKRIGQIKSKKFRCSAKEQYFIPGTEDYRSKLSGDCFADLACPEKCRCEGTTVDCSNQKLNKIPEHIPQYTAELRLNNNEFTVLEATGIFKKLPQLRKINFSNNKITDIEEGAFEGASGVNEILLTSNRLENVQHKMFKGLESLKTLMLRSNRITCVGNDSFIGLSSVRLLSLYDNQITTVAPGAFDTLHSLSTLNLLANPFNCNCYLAWLGEWLRKKRIVTGNPRCQKPYFLKEIPIQDVAIQDFTCDDGNDDNSCSPLSRCPTECTCLDTVVRCSNKGLKVLPKGIPRDVTELYLDGNQFTLVPKELSNYKHLTLIDLSNNRISTLSNQSFSNMTQLLTLILSYNRLRCIPPRTFDGLKSLRLLSLHGNDISVVPEGAFNDLSALSHLAIGANPLYCDCNMQWLSDWVKSEYKEPGIARCAGPGEMADKLLLTTPSKKFTCQGPVDVNILAKCNPCLSNPCKNDGTCNSDPVDFYRCTCPYGFKGQDCDVPIHACISNPCKHGGTCHLKEGEEDGFWCICADGFEGENCEVNVDDCEDNDCENNSTCVDGINNYTCLCPPEYTGELCEEKLDFCAQDLNPCQHDSKCILTPKGFKCDCTPGYVGEHCDIDFDDCQDNKCKNGAHCTDAVNGYTCICPEGYSGLFCEFSPPMVLPRTSPCDNFDCQNGAQCIVRINEPICQCLPGYQGEKCEKLVSVNFINKESYLQIPSAKVRPQTNITLQIATDEDSGILLYKGDKDHIAVELYRGRVRASYDTGSHPASAIYSVETINDGNFHIVELLALDQSLSLSVDGGNPKIITNLSKQSTLNFDSPLYVGGMPGKSNVASLRQAPGQNGTSFHGCIRNLYINSELQDFQKVPMQTGILPGCEPCHKKVCAHGTCQPSSQAGFTCECQEGWMGPLCDQRTNDPCLGNKCVHGTCLPINAFSYSCKCLEGHGGVLCDEEEDLFNPCQAIKCKHGKCRLSGLGQPYCECSSGYTGDSCDREISCRGERIRDYYQKQQGYAACQTTKKVSRLECRGGCAGGQCCGPLRSKRRKYSFECTDGSSFVDEVEKVVKCGCTRCVS
